Paper PMC3824243
Results are given in words; binding and its absence hold for the method and conditions named. Some binding calls cover weakened binding; strength is not graded here. Sequences can lack the tags named with a protein.

Amino acid sequences for entries named in this document (tags omitted).
UniProt Q04LY0: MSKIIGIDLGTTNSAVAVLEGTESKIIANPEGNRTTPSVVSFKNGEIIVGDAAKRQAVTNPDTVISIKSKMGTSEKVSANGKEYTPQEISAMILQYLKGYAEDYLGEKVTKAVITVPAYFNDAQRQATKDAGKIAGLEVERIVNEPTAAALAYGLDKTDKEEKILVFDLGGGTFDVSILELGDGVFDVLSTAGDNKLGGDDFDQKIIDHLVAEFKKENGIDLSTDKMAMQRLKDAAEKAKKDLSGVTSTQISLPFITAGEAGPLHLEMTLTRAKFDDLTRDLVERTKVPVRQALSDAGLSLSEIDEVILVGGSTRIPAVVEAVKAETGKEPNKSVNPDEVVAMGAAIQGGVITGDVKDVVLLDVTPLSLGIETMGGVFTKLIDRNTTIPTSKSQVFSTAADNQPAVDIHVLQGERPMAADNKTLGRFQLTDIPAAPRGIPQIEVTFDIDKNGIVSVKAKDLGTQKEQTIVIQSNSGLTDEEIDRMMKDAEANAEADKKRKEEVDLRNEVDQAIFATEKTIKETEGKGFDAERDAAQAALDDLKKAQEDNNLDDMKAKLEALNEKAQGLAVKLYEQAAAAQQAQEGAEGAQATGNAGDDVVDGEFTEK

T1: DnaJ fused to the full-length bacteriophage λ repressor protein (pBT-dnaJ) (Streptococcus pneumoniae D39) (UniProt P95830)
T1 sequence: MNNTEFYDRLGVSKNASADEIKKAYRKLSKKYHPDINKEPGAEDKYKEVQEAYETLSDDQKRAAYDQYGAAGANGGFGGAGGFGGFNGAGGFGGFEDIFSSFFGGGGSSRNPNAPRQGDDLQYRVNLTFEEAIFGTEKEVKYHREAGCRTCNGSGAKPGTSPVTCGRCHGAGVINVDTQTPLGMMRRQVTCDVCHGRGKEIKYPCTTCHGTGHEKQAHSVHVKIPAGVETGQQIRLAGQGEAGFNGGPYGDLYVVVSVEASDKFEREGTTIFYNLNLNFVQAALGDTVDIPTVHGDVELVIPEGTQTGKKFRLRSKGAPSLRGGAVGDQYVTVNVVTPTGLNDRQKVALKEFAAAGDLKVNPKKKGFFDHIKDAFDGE


Biological target: T1, DnaJ fused to the full-length bacteriophage λ repressor protein (pBT-dnaJ) (Streptococcus pneumoniae D39)
Test: two-hybrid; bacterial two-hybrid in E. coli XL1-Blue MRF' Kan: DnaJ on λcI (pBT), partner on the RNA polymerase α-subunit N-terminal domain (pTRG); HIS3 and aadA reporters; selective plates with 5 mM 3-AT, dual selective plates with 5 mM 3-AT and 12.5 μg/ml streptomycin, 37 °C

Row | binding | Molecule
1 | binds | DnaK fused to the N-terminal domain of the α-subunit of RNA polymerase (pTRG-dnaK) (from UniProt Q04LY0 1-607)
2 | binds | SpxB fused to the N-terminal domain of the α-subunit of RNA polymerase (pTRG-spxB) (enzyme, UniProt Q54970 1-591) MTQGKITASAAMLNVLKTWGVDTIYGIPSGTLSSLMDALAEDKDIRFLQVRHEETGALAAVMQAKFGGSIGVAVGSGGPGATHLINGVYDAAMDNTPFLAILGSRPVNELNMDAFQELNQNPMYNGIAVYNKRVAYAEQLPKVIDEACRAAVSKKGPAVVEIPVNFGFQEIDENSYYGSGSYERSFIAPALNEVEIDKAVEILNNAERPVIYAGFGGVKAGEVITELSRKIKAPIITTGKNFEAFEWNYEGLTGSAYRVGWKPANEVVFEADTVLFLGSNFPFAEVYEAFKNTEKFIQVDIDPYKLGKRHALDASILGDAGQAAKAILDKVNPVESTPWWRANVKNNQNWRDYMNKLEGKTEGELQLYQVYNAINKHADQDAIYSIDVGNTTQTSTRHLHMTPKNMWRTSPLFATMGIALPGGIAAKKDNPDRQVWNIMGDGAFNMCYPDVITNVQYDLPVINLVFSNAEYGFIKNKYEDTNKHLFGVDFTNADYAKIAEAQGAVGFTVDRIEDIDAVVAEAVKLNKEGKTVVIDARITQHRPLPVEVLELDPKLHSEEAIKAFKEKYEAEELVPFRLFLEEEGLQSRAIK
